According to patent publication US20180231562A1:
These are yes or no findings as the source states them, for the method shown. In cells and extracts the contact can be indirect. Some results given as binding are weak or reduced against the parent protein; the word gives no strength.

Protein sequences, listed by entry. Tags and fused reporters are not part of them. Residues count along the entry.
UniProt P20333, residues 23-461: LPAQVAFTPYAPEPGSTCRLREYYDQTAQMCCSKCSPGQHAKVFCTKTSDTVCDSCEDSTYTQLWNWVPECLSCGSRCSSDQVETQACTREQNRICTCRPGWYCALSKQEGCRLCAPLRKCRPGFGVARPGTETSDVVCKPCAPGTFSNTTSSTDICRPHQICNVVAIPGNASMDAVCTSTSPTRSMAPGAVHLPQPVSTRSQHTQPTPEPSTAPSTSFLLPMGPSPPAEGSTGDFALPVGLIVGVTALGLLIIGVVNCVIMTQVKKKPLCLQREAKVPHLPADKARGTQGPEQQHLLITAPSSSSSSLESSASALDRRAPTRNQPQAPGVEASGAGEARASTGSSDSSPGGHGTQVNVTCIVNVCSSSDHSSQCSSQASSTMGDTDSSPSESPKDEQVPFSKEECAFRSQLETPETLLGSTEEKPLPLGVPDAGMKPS

Assays:
[1] = target: TNFR2 on PHA-L and IL-2 expanded primary human T cells (human) (UniProt P20333); experiment: co-immunoprecipitation with anti-TNFR2 from lysates of human T cells mixed with NS0-mTNF cells; TRAF-2 immunoblot
[2] = target: TNFR2 on PHA-L and IL-2 expanded primary human T cells (human) (UniProt P20333); experiment: Co-immunoprecipitation: TNFR2 pulled from lysates of T cells mixed with NS0 cells (polyclonal goat anti-human TNFR2, protein G sepharose), SDS-PAGE, immunoblot with anti-TRAF-2
[3] = target: TNFR2 on PHA-L and IL-2 expanded primary human T cells (human) (UniProt P20333); experiment: co-immunoprecipitation with anti-TNFR2 from lysates of human T cells mixed with compound-loaded NS0-mTNF cells; TRAF-2 immunoblot

binding [1]: binds | binding [2]: binds | binding [3]: binds
B1: TRAF-2 (protein, UniProt Q12933 2-501, looked up)
chain: AAASVTPPGSLELLQPGFSKTLLGTKLEAKYLCSACRNVLRRPFQAQCGHRYCSFCLASILSSGPQNCAACVHEGIYEEGISILESSSAFPDNAARREVESLPAVCPSDGCTWKGTLKEYESCHEGRCPLMLTECPACKGLVRLGEKERHLEHECPERSLSCRHCRAPCCGADVKAHHEVCPKFPLTCDGCGKKKIPREKFQDHVKTCGKCRVPCRFHAIGCLETVEGEKQQEHEVQWLREHLAMLLSSVLEAKPLLGDQSHAGSELLQRCESLEKKTATFENIVCVLNREVERVAMTAEACSRQHRLDQDKIEALSSKVQQLERSIGLKDLAMADLEQKVLEMEASTYDGVFIWKISDFARKRQEAVAGRIPAIFSPAFYTSRYGYKMCLRIYLNGDGTGRGTHLSLFFVVMKGPNDALLRWPFNQKVTLMLLDQNNREHVIDAFRPDVTSSSFQRPVNDMNIASGCPLFCPVSKMEAKNSYVRDDAIFIKAIVDLTGL
